Results: the supplement of paper PMC4604168 (melanoma cell lines)
This is one part of the list. Single values are uncertain, as repeats are few or missing.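 Imaging used 1,536-well plates; nuclei positive for cleaved PARP by antibody were divided by total DNA-stained nuclei to yield the apoptosis fraction. Doses for screening kept most cells viable, and cell lines differ markedly in resting and induced cleaved-PARP levels.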

Key:
Test in all cases: cleaved PARP positive nuclei fraction relative to DMSO control; melanoma cells; higher = more apoptosis
Conditions in all cases: library dose: low library concentration; 72 h
WM115 = system: WM115
WM1716 = system: WM1716
WM1745 = system: WM1745
WM3526 = system: WM3526
WM3619 = system: WM3619
WM451Lu = system: WM451Lu

| Structure (SMILES) | cleaved PARP positive nuclei fraction (WM115) [%] | cleaved PARP positive nuclei fraction (WM1716) [%] | cleaved PARP positive nuclei fraction (WM1745) [%] | cleaved PARP positive nuclei fraction (WM3526) [%] | cleaved PARP positive nuclei fraction (WM3619) [%] | cleaved PARP positive nuclei fraction (WM451Lu) [%] |
| --- | --- | --- | --- | --- | --- | --- |
| Cc1nc(Nc2ncc(C(=O)Nc3c(C)cccc3Cl)s2)cc(N2CCN(CCO)CC2)n1 [dasatanib] + Cc1cc([N+](=O)[O-])ccc1NS(=O)(=O)c1cc(Cl)ccc1Cl [FH535] (first compound 0.004 µM, partner dose 1 µM) | 404 | 196 | 146 | 145 | 93.9 | 72.1 |
| C[C@@H]1CCN(C(=O)CC#N)C[C@@H]1N(C)c1ncnc2[nH]ccc12 + Oc1nc(-c2ccc(C(F)(F)F)cc2)nc2c1CSCC2 [XAV939] (first compound 1 µM, partner dose 2 µM) | 91 | 262 | 113 | 74.2 | 82.1 | 109 |
| C=CCn1c(=O)c2cnc(Nc3ccc(N4CCN(C)CC4)cc3)nc2n1-c1cccc(C(C)(C)O)n1 + CN(NC(=O)CC(=O)NN(C)C(=S)c1ccccc1)C(=S)c1ccccc1 [STA4783] (first compound 0.02 µM, partner dose 0.006 µM) | 133 | 138 | 245 | 59.7 | 158 | 120 |
| CC(=O)c1c(C)c2cnc(Nc3ccc(N4CCNCC4)cn3)nc2n(C2CCCC2)c1=O [palbociclib] + Cn1c(Nc2ccc(C(F)(F)F)cc2)nc2cc(Oc3ccnc(-c4ncc(C(F)(F)F)[nH]4)c3)ccc21 [CHIR265] (first compound 0.04 µM, partner dose 0.08 µM) | 441 | 94.9 | 159 | 234 | 136 | 74 |
| CC1(C)NC(=O)N(c2ccc([N+](=O)[O-])c(C(F)(F)F)c2)C1=O [nilutamide] + Cc1ccc(NC(=O)c2cccc(N(C)C)c2)cc1NC(=O)c1ccc(O)cc1 [ZM336372] (first compound 1 µM, partner dose 2 µM) | 104 | 137 | 125 | 297 | 81.6 | 49.2 |
| COc1cc(Nc2ncc(F)c(Nc3ccc4c(n3)NC(=O)C(C)(C)O4)n2)cc(OC)c1OC [Tamatinib] + C=CCn1c(=O)c2cnc(Nc3ccc(N4CCN(C)CC4)cc3)nc2n1-c1cccc(C(C)(C)O)n1 [MK1775] (first compound 0.4 µM, partner dose 0.02 µM) | 157 | 73.7 | 122 | 67.6 | 116 | 93.6 |
| Cc1nc(Nc2ncc(C(=O)Nc3c(C)cccc3Cl)s2)cc(N2CCN(CCO)CC2)n1 [dasatanib] + COc1ccc(-c2ccc3c(N4CCOCC4)nc(N4C[C@@H](C)O[C@@H](C)C4)nc3n2)cc1CO [KU0063794] (first compound 0.004 µM, partner dose 0.02 µM) | 475 | 244 | 149 | 75.9 | 116 | 74.6 |
| OCc1c[nH]c2ccccc12 [Indole-3-carbinol] + Cn1nnc2c(C(N)=O)ncn2c1=O [temozolomide] (first compound 0.8 µM, partner dose 2 µM) | 79.7 | 15.1 | 198 | 90.5 | 73.8 | 59.6 |
| Cn1cncc1[C@@](N)(c1ccc(Cl)cc1)c1ccc2c(c1)c(-c1cccc(Cl)c1)cc(=O)n2C [tipifarnib] + c1cc(-c2cnn3cc(-c4ccc(OCCN5CCCCC5)cc4)cnc23)ccn1 [Dorsomorphin] (first compound 0.01 µM, partner dose 0.4 µM) | 155 | 66.8 | 108 | 112 | 91.9 | 284 |
| C[C@]1(c2nc3c(C(N)=O)cccc3[nH]2)CCCN1 [Veliparib] + NCC(=O)Nc1ccc(-n2nc(C(F)(F)F)cc2-c2ccc3c(ccc4ccccc43)c2)cc1 [OSU03012] (first compound 1.4 µM, partner dose 1 µM) | 59.9 | 78.6 | 92.7 | 115 | 106 | 80.6 |
| Clc1ccc(Nc2nnc(Cc3ccncc3)c3ccccc23)cc1 [vatalanib] + Oc1nc(-c2ccc(C(F)(F)F)cc2)nc2c1CSCC2 [XAV939] (first compound 2 µM, partner dose 2 µM) | 301 | 198 | 128 | 58.3 | 77.9 | 330 |
| CC(=O)c1c(C)c2cnc(Nc3ccc(N4CCNCC4)cn3)nc2n(C2CCCC2)c1=O [palbociclib] + O=C(O)C(=O)Nc1sc2c(c1C(=O)O)CCNC2 [TCS401] (first compound 0.04 µM, partner dose 1.66667 µM) | 197 | 57.6 | 137 | 111 | 127 | 43.7 |
| OCc1c[nH]c2ccccc12 [Indole-3-carbinol] + Cc1ccc(NC(=O)c2cccc(N(C)C)c2)cc1NC(=O)c1ccc(O)cc1 [ZM336372] (first compound 0.8 µM, partner dose 2 µM) | 44.8 | 192 | 164 | 226 | 115 | 170 |

Rewritten bar-delimited: part of the list above.
Structure (SMILES) | cleaved PARP positive nuclei fraction (WM115) [%] | cleaved PARP positive nuclei fraction (WM1716) [%] | cleaved PARP positive nuclei fraction (WM1745) [%] | cleaved PARP positive nuclei fraction (WM3526) [%] | cleaved PARP positive nuclei fraction (WM3619) [%] | cleaved PARP positive nuclei fraction (WM451Lu) [%]
C[C@@H]1CCN(C(=O)CC#N)C[C@@H]1N(C)c1ncnc2[nH]ccc12 + Oc1nc(-c2ccc(C(F)(F)F)cc2)nc2c1CSCC2 [XAV939] (first compound 1 µM, partner dose 2 µM) | 91 | 262 | 113 | 74.2 | 82.1 | 109
COc1cc(Nc2ncc(F)c(Nc3ccc4c(n3)NC(=O)C(C)(C)O4)n2)cc(OC)c1OC [Tamatinib] + C=CCn1c(=O)c2cnc(Nc3ccc(N4CCN(C)CC4)cc3)nc2n1-c1cccc(C(C)(C)O)n1 [MK1775] (first compound 0.4 µM, partner dose 0.02 µM) | 157 | 73.7 | 122 | 67.6 | 116 | 93.6
